± gives the standard deviation of the averaged measurements. The entries are a selection whose mix differs from that of the whole data set. Small differences around the control level are noise.
Compound: Nc1ncnc2c1ncn2[C@@H]1O[C@H](COP(=O)(O)OP(=O)(O)OP(=O)(O)O)[C@@H](O)[C@H]1O [adenosine triphosphate]
Test: NP40-soluble protein abundance relative to vehicle (solubility fold change) (ratio); higher = more soluble protein in presence of ATP
Procedure, shortened: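 In three independent experiments, Jurkat crude lysate made by Dounce homogenisation was treated for 10 min at room temperature and then 3 min at 37 °C with eight concentrations ranging from 0.1 to 10 mM. It was then solubilised with 0.8% NP40 plus benzonase for 60 min at 4 °C and ultracentrifuged. The supernatant was TMT-labelled for LC-MS/MS, and each value is the fold change against the detergent-processed vehicle for the same replicate, using vsn-normalised intensities.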

Amino acid sequences for entries named in this document (tags omitted). A change or cut given only in a name is not applied to a line headed by its entry.
UniProt Q9NRB3: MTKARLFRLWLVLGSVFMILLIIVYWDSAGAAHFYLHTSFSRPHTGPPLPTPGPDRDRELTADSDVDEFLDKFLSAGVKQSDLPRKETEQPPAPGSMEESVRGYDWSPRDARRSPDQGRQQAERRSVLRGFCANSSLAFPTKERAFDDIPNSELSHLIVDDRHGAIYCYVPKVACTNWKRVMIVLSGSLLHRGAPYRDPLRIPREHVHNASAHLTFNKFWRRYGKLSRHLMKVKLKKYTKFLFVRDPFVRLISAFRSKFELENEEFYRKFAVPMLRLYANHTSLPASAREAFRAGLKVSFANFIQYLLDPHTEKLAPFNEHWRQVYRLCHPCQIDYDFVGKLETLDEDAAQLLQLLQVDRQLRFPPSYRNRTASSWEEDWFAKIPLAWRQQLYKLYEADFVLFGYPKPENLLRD
UniProt Q9NX01: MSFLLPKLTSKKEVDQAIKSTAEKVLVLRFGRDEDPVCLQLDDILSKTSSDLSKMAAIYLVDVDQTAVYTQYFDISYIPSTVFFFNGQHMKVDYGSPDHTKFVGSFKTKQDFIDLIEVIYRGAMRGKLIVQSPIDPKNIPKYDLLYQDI
UniProt Q9NUW8, whole entry: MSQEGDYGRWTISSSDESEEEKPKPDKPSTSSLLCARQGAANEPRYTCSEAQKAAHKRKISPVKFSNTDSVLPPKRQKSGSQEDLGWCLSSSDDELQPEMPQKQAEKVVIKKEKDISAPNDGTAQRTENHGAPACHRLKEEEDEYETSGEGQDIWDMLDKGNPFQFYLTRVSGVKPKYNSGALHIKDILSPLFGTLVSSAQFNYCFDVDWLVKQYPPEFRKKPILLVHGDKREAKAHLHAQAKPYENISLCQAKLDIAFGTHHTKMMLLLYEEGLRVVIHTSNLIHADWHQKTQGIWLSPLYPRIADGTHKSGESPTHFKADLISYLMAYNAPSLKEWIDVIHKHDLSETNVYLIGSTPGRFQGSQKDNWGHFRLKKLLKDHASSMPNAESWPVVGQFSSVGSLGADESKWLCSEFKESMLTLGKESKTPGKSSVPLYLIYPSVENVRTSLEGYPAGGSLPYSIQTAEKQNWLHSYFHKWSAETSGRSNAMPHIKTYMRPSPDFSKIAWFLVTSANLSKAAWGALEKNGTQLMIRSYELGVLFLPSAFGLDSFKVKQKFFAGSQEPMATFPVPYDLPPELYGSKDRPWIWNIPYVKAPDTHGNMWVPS
UniProt Q9NS93: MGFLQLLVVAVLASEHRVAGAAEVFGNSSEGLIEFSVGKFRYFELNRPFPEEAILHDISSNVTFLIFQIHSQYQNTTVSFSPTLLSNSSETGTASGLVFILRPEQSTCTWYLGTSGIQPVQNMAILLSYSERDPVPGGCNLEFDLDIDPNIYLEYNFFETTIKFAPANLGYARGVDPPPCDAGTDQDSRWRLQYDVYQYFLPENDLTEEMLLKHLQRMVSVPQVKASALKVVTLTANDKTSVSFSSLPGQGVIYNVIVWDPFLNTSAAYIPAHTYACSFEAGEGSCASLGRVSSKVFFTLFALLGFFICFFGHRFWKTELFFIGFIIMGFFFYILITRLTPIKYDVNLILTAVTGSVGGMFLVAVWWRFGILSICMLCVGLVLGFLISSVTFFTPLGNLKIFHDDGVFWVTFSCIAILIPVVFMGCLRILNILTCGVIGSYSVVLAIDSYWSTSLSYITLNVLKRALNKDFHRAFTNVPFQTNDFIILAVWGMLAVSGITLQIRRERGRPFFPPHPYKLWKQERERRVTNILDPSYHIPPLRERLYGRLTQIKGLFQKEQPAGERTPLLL
UniProt Q9NR09, whole entry: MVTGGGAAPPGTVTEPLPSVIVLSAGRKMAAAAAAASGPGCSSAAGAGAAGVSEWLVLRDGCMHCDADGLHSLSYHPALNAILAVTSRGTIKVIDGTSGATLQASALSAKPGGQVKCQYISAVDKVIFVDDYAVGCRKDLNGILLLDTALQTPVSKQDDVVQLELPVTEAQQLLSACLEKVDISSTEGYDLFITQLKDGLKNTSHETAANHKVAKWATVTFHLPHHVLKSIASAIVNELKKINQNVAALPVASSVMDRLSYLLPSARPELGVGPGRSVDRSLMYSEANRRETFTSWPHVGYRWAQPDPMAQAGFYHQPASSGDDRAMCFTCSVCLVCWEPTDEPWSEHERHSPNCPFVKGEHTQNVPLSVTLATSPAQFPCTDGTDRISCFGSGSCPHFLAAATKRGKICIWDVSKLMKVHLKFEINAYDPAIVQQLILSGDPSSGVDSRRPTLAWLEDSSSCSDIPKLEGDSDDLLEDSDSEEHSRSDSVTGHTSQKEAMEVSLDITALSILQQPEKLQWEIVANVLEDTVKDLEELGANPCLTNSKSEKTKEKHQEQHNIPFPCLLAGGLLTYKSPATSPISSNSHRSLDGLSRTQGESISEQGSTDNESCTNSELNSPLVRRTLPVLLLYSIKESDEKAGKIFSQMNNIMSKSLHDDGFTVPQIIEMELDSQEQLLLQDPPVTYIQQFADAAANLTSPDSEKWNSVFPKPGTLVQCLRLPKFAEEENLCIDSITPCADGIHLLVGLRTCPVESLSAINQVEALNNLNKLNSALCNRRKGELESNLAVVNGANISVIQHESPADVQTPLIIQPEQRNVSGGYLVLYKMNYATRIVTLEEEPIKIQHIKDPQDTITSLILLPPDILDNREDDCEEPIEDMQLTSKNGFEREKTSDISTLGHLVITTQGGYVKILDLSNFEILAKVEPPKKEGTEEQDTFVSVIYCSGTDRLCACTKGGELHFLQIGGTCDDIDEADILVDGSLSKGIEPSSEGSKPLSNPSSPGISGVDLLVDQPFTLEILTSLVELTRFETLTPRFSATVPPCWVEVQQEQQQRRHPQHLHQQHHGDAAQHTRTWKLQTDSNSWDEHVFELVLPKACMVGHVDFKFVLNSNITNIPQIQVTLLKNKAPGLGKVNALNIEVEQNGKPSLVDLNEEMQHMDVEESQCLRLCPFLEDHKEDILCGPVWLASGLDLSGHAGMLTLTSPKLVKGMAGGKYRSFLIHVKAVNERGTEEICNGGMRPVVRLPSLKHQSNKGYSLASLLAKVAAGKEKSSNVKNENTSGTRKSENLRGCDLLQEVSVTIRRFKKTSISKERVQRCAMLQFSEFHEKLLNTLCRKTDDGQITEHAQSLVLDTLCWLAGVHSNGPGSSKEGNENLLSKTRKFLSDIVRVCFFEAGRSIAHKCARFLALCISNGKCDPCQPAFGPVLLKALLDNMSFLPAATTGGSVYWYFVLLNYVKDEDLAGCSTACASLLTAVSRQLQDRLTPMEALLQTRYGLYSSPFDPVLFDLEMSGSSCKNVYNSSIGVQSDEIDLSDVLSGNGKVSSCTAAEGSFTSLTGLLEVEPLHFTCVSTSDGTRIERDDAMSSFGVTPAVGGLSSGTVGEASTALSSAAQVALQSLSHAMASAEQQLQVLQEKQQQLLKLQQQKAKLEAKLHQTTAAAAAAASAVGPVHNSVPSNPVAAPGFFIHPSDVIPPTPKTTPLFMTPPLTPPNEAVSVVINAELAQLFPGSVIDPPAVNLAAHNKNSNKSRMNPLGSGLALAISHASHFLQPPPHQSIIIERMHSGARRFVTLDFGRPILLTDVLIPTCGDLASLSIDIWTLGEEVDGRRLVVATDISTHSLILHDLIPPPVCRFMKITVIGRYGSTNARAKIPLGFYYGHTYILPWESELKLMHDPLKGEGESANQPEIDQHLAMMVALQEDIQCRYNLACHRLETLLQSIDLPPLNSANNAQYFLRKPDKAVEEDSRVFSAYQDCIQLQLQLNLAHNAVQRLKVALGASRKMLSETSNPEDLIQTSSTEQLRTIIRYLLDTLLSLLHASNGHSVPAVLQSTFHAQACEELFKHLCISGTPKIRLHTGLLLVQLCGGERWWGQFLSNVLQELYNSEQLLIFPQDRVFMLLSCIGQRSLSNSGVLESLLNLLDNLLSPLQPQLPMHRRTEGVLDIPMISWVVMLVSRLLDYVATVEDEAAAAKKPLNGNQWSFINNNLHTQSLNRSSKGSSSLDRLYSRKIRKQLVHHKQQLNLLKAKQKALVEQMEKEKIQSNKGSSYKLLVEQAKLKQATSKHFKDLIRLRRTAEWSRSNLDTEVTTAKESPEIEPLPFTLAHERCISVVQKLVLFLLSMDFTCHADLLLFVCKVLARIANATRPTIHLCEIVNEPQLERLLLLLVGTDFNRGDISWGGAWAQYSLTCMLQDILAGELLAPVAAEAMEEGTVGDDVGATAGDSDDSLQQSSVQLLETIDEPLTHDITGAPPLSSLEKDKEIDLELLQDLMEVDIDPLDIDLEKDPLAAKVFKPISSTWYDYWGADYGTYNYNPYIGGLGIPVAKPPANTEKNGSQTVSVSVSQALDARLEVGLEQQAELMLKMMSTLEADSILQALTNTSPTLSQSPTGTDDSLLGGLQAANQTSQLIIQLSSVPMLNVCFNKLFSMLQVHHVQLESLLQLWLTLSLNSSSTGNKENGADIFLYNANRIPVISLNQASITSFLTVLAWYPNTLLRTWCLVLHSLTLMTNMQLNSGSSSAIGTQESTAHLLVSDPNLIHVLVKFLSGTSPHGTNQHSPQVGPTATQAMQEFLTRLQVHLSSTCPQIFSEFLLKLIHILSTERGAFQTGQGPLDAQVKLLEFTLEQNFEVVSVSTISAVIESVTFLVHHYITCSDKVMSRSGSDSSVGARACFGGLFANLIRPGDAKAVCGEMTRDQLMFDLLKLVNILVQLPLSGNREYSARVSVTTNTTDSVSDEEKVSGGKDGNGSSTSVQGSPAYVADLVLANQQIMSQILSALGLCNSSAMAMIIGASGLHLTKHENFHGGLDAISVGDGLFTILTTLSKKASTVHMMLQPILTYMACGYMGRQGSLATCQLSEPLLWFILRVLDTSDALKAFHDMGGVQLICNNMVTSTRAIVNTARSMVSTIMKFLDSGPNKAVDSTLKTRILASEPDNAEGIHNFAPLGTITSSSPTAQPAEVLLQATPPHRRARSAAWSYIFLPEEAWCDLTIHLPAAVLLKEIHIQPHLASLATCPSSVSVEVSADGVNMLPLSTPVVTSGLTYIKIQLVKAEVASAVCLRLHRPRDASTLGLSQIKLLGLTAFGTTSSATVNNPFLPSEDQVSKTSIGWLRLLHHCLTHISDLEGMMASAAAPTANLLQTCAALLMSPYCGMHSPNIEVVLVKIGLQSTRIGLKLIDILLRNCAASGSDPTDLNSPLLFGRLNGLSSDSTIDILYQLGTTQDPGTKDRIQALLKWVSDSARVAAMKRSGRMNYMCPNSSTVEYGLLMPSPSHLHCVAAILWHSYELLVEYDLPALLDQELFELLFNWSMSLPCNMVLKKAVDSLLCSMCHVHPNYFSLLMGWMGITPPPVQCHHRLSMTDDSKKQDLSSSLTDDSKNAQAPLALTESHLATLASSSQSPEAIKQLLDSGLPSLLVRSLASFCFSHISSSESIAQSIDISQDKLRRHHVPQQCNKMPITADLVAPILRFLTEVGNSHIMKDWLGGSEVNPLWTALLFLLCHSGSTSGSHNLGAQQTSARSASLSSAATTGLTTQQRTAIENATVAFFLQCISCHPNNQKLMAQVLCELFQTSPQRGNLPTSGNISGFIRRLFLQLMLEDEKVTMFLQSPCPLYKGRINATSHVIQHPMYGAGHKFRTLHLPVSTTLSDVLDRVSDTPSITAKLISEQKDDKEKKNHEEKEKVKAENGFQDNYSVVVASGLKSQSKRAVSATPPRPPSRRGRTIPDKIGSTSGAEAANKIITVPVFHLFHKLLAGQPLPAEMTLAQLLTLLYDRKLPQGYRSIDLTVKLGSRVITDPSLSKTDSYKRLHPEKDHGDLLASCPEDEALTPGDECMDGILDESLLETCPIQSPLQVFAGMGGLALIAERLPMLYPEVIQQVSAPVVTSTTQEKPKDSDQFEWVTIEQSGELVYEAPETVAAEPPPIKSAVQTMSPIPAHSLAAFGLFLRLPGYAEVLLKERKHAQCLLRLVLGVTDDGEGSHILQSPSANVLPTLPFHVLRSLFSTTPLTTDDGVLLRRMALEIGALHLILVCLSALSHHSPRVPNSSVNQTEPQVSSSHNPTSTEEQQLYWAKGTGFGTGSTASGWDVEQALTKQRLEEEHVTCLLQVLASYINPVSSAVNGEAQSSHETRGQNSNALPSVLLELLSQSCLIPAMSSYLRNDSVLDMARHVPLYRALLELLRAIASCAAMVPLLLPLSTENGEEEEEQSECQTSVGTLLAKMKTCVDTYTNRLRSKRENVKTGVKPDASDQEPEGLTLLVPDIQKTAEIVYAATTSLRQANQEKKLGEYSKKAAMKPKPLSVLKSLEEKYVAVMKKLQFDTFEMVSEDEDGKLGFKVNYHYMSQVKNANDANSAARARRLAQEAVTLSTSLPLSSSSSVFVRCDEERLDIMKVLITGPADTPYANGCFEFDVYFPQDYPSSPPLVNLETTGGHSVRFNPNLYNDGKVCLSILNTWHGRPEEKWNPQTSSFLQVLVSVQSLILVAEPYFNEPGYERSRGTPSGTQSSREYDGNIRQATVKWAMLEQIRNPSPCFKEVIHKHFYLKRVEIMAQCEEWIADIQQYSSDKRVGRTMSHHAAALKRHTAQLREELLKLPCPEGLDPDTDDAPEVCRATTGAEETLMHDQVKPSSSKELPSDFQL

Target	NP40-soluble protein abundance (concentration: 0.1mM)	NP40-soluble protein abundance (concentration: 0.5mM)	NP40-soluble protein abundance (concentration: 1mM)	NP40-soluble protein abundance (concentration: 2mM)	NP40-soluble protein abundance (concentration: 4mM)	NP40-soluble protein abundance (concentration: 6mM)	NP40-soluble protein abundance (concentration: 8mM)	NP40-soluble protein abundance (concentration: 10mM)
IRAK4 (UniProt Q9NWZ3)	1.04 ± 0.045	1.04 ± 0.057	1.02 ± 0.042	1.03 ± 0.045	1.01 ± 0.051	0.985 ± 0.057	0.996 ± 0.043	0.988 ± 0.047
MRPL16 (UniProt Q9NX20)	1.08 ± 0.14	1.11 ± 0.14	1.17 ± 0.12	1.08 ± 0.11	1.06 ± 0.16	1.11 ± 0.38	1.08 ± 0.18	0.981 ± 0.14
CHST12 (UniProt Q9NRB3)	0.916 ± 0.047	0.882 ± 0.087	–	–	–	–	–	–
UniProt Q9NY12 and related entries	0.982 ± 0.068	1.04 ± 0.079	1.11 ± 0.061	1.18 ± 0.084	1.29 ± 0.067	1.41 ± 0.16	1.72 ± 0.15	1.93 ± 0.32
TXNL4B (UniProt Q9NX01)	1.01 ± 0.053	0.962 ± 0.08	–	–	–	–	–	–
UniProt Q9NQW7-3	1.04 ± 0.067	1.04 ± 0.05	1.01 ± 0.044	0.994 ± 0.029	0.968 ± 0.044	0.976 ± 0.052	0.991 ± 0.043	0.966 ± 0.036
UniProt Q9NVX7-2|A0A075B6T4|Q9NVX7	1.03 ± 0.042	1.02 ± 0.026	1 ± 0.072	1.02 ± 0.066	1 ± 0.11	0.957 ± 0.095	1.05 ± 0.065	0.975 ± 0.036
UniProt Q9P035 and related entries	1.08 ± 0.11	1.08 ± 0.029	1.1 ± 0.16	1.1 ± 0.11	1.1 ± 0.11	1.01 ± 0.091	1.1 ± 0.033	1.15 ± 0.083
TDP1 (UniProt Q9NUW8)	1.04 ± 0.074	1.05 ± 0.087	1.02 ± 0.032	1.02 ± 0.046	0.983 ± 0.063	1 ± 0.069	0.985 ± 0.049	1.01 ± 0.062
IARS2 (UniProt Q9NSE4)	1.06 ± 0.1	1.07 ± 0.087	1.04 ± 0.08	1.02 ± 0.075	0.991 ± 0.069	0.977 ± 0.1	1.02 ± 0.056	0.98 ± 0.069
UniProt Q9NUQ7 and related entries	1.11 ± 0.071	1.12 ± 0.066	1.09 ± 0.15	1.07 ± 0.13	1.05 ± 0.093	0.95 ± 0.18	1.08 ± 0.072	1.02 ± 0.091
TRNAU1AP (UniProt Q9NX07)	0.975 ± 0.04	0.989 ± 0.059	–	–	–	–	–	–
LUC7L (UniProt Q9NQ29)	1.19 ± 0.049	2.76 ± 0.18	2.7 ± 0.14	2.9 ± 0.11	2.86 ± 0.17	3.28 ± 0.17	2.93 ± 0.17	3.11 ± 0.15
UniProt Q9NYK6 and related entries	1.07 ± 0.024	1.01 ± 0.031	1.09 ± 0.13	1.02 ± 0.026	1.04 ± 0.011	1.05 ± 0.089	0.99 ± 0.066	1.05 ± 0.026
DDX21 (UniProt Q9NR30)	1.08 ± 0.028	1.18 ± 0.063	1.29 ± 0.046	1.42 ± 0.042	1.65 ± 0.098	2.04 ± 0.17	2.53 ± 0.21	3.17 ± 0.13
DNAJC17 (UniProt Q9NVM6)	0.96 ± 0.096	0.902 ± 0.044	–	–	–	–	–	–
TM7SF3 (UniProt Q9NS93)	1.02 ± 0.038	0.958 ± 0.02	–	–	–	–	–	–
UniProt Q9NUL3-3|Q9NUL3-8|A0A0A0MTD1|E7EPX0 and related entries	0.956 ± 0.091	0.958 ± 0.052	0.971 ± 0.048	1.11 ± 0.13	1.02 ± 0.057	1.11 ± 0.15	1.16 ± 0.099	1.3 ± 0.11
RPRD1B (UniProt Q9NQG5)	0.909 ± 0.11	0.851 ± 0.13	0.969 ± 0.12	0.943 ± 0.039	0.971 ± 0.049	0.993 ± 0.089	1.02 ± 0.034	0.854 ± 0.15
UniProt Q9NUL5	1.01 ± 0.04	0.968 ± 0.038	0.948 ± 0.041	0.972 ± 0.048	0.921 ± 0.029	0.921 ± 0.057	0.908 ± 0.025	0.924 ± 0.035
ARMC1 (UniProt Q9NVT9)	0.919 ± 0.01	0.928 ± 0.073	0.913 ± 0.046	0.946 ± 0.018	0.876 ± 0.024	0.866 ± 0.063	0.881 ± 0.035	0.908 ± 0.029
UniProt Q9NSI8 and related entries	1.01 ± 0.032	0.981 ± 0.043	–	–	–	–	–	–
FAM118A (UniProt Q9NWS6)	0.999 ± 0.096	0.971 ± 0.038	–	–	–	–	–	–
UniProt Q9NZC7 and related entries	0.9698 ± 0.0029	1.04 ± 0.026	1.028 ± 0.01	1.04 ± 0.073	1.04 ± 0.1	1.08 ± 0.13	1.06 ± 0.073	1.2 ± 0.29
SACS (UniProt Q9NZJ4)	1.1 ± 0.038	1.04 ± 0.089	1.09 ± 0.08	1.04 ± 0.072	1.08 ± 0.056	0.991 ± 0.075	1.102 ± 0.01	1.05 ± 0.042
DDX18 (UniProt Q9NVP1)	1.09 ± 0.028	1.2 ± 0.047	1.21 ± 0.029	1.3 ± 0.024	1.503 ± 0.0076	1.74 ± 0.035	2.07 ± 0.024	2.36 ± 0.16
BIRC6 (UniProt Q9NR09)	1.02 ± 0.052	1.02 ± 0.06	1.05 ± 0.029	1.01 ± 0.058	0.992 ± 0.031	0.99 ± 0.12	0.999 ± 0.083	0.994 ± 0.088
UniProt Q9NZM5	0.971 ± 0.039	0.904 ± 0.044	–	–	–	–	–	–
UniProt Q9NVI7-2	0.954 ± 0.084	1.22 ± 0.13	1.54 ± 0.05	1.64 ± 0.086	1.8 ± 0.086	1.89 ± 0.29	2.2 ± 0.2	2.35 ± 0.26

In a second layout: entries from further up
Target,NP40-soluble protein abundance (concentration: 0.1mM),NP40-soluble protein abundance (concentration: 0.5mM),NP40-soluble protein abundance (concentration: 1mM),NP40-soluble protein abundance (concentration: 2mM),NP40-soluble protein abundance (concentration: 4mM),NP40-soluble protein abundance (concentration: 6mM),NP40-soluble protein abundance (concentration: 8mM),NP40-soluble protein abundance (concentration: 10mM)
TXNL4B (UniProt Q9NX01),1.01 ± 0.053,0.962 ± 0.08,–,–,–,–,–,–
UniProt Q9NVX7-2|A0A075B6T4|Q9NVX7,1.03 ± 0.042,1.02 ± 0.026,1 ± 0.072,1.02 ± 0.066,1 ± 0.11,0.957 ± 0.095,1.05 ± 0.065,0.975 ± 0.036

From the supplement of paper PMC6411743
